Experimental data as given in article PMC4022412.
No constants are given. Whether binding was seen depends on the method and setting. Binding seen in cells or lysates may run through a third protein. Some entries that bind do so weakly or less than the wild type. For part of these data: Where a sequence is shown, tags or fusion partners need not be part of it.

By UniProt entry, the sequences of proteins in these tests, tags left out.
UniProt Q60857: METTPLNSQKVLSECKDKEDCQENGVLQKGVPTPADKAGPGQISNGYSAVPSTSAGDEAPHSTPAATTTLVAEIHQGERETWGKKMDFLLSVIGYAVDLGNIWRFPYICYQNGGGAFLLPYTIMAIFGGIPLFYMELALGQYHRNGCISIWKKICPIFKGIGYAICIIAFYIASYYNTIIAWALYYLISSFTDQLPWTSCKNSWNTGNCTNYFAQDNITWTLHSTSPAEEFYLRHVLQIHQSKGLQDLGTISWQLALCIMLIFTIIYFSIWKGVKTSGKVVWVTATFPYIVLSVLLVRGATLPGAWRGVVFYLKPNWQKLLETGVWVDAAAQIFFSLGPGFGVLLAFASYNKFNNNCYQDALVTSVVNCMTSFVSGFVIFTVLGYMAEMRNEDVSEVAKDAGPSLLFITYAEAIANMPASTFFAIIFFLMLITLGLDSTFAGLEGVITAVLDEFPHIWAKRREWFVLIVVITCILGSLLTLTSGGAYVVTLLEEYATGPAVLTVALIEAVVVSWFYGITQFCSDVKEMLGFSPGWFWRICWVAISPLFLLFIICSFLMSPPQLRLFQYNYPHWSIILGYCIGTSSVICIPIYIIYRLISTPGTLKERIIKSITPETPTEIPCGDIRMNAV
UniProt P46460: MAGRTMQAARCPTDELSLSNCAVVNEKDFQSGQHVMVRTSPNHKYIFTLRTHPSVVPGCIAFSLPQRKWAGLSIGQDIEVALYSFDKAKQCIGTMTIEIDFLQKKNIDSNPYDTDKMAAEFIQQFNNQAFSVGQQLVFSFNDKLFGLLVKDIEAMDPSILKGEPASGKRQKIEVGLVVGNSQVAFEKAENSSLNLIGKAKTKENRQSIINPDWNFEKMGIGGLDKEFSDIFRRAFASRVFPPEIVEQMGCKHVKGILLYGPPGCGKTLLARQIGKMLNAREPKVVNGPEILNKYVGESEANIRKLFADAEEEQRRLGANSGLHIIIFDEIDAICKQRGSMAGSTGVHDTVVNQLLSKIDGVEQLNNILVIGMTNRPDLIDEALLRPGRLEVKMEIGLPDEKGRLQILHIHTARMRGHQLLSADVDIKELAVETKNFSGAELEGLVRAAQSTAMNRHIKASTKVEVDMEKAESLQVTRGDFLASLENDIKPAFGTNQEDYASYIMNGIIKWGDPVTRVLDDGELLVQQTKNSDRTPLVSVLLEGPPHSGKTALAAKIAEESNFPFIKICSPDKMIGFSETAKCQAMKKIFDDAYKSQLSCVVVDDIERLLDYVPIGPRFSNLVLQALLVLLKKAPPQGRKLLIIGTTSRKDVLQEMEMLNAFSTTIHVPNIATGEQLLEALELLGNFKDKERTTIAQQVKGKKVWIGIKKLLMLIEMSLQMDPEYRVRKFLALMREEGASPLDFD

Legend:
[1] = target: serotonin transporter (SERT), endogenous in mouse brain (mouse (endogenous in mouse brain)) (UniProt Q60857); assay: co-IP; mouse brains cross-linked in vivo by time-controlled transcardiac perfusion (tcTPC, 4% formaldehyde, 6 min); extract with 1% NP-40, 1% deoxycholate; immunoprecipitation with anti-SERT antibody and protein G-Sepharose; blot probed for NSF
[2] = target: serotonin transporter (SERT), endogenous in mouse brain (mouse (endogenous in mouse brain)) (UniProt Q60857); assay: condition: only without tcTPC cross-linking (detergent extract); co-IP; non-tcTPC-treated (not cross-linked) mouse brains; extract with 1% NP-40, 1% deoxycholate; immunoprecipitation with anti-SERT antibody and protein G-Sepharose; blot probed for NSF
[3] = target: T1, GST-N-SERT (N-terminal domain of the rat serotonin transporter, residues 1 to 85, fused to glutathione S-transferase) (rat) (UniProt P31652); assay: pull-down; GST, GST-N-SERT or GST-C-SERT on glutathione agarose incubated with mouse brain extract at 4°C for 3 h; washed with TBS; Western blot; only the target purified
T1 sequence: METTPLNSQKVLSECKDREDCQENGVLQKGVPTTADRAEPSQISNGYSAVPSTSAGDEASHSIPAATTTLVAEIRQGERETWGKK

binding [1]: binds
binding [2]: no binding
binding [3]: binds
Substance: N-ethylmaleimide-sensitive factor (Vesicle-fusing ATPase) (from UniProt P46460 1-744)
